## Assay results

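Inhibition of a His-tagged, E. coli-produced human HSD17B10 is judged by how it slows the gain in NADH fluorescence from NAD+ reduction. Each compound was run as a 15-point series from about 0.0007 to 57 µM. Fitted half-maximal potency (AC50) from the inhibition curve; a lower value means a more potent inhibitor. The record's title names HSD17B4; its protocol and target entry give this enzyme. Active means a well-fitted inhibition curve with a large enough effect; inconclusive means a weak, poorly fitted or top-concentration-only effect.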

Values are in µM. Only part of the assay is shown, chiefly results filed as inconclusive. Potencies fitted to partial, single-point or poorly fitting curves are rough. Some entries filed as inconclusive have a full curve.

structure,fitted potency (µM),outcome,curve
Cc1onc(-c2ccccc2Cl)c1C(=O)OCC(=O)c1ccc2c(c1)OCCO2,19.95,inconclusive,"inhibitor, single point"
CC1(C)OC2CC3C4CC(F)C5=CC(=O)C=C[C@@]5(C)[C@@]4(F)C(O)C[C@@]3(C)[C@]2(C(=O)CO)O1 (some centres undefined),25.12,inconclusive,"inhibitor, single point"
CCCC(=O)C1=C(c2ccccc2)C(C#N)(C#N)C(C#N)=C1N,31.62,inconclusive,"inhibitor, single point"
COCCn1c(=O)c(-c2cccs2)nc2cnc(N(C)C)nc21,6.31,inconclusive,"inhibitor, full curve"
Nc1ccc2ncccc2c1,31.62,inconclusive,"inhibitor, single point"
CCN(CC)CCCC(C)Nc1ccnc2cc(Cl)ccc12 (centres undefined),39.81,inconclusive,"inhibitor, single point"
COC(=O)c1ccccc1NS(=O)(=O)c1ccc2c3c(cccc13)C(=O)N2,15.85,inconclusive,"inhibitor, partial curve"
CCC(C)NC(=O)c1c(N)n(Cc2ccc3c(c2)OCO3)c2nc3ccccc3nc12 (centres undefined),25.12,active,-
N#Cc1c(NC(=O)Cn2c(=O)oc3ccccc32)oc(-c2ccccc2)c1-c1ccccc1,39.81,inconclusive,"inhibitor, single point"
CCn1c(=N)c(C(=O)NCc2cccnc2)cc2c(=O)n3cccc(C)c3nc21,3.981,active,-
CCc1c(C(=O)OC)ncc2[nH]c3cc(OC)c(OC)cc3c12,25.12,inconclusive,"inhibitor, single point"
CCOC(=O)C1CCN(C(=O)Nc2ccc3nc(-c4ccco4)c(-c4ccco4)nc3c2)CC1,31.62,active,-
N#CC1(C#N)C2=C(CCCC2)NC(c2ccccc2)C1(C#N)C#N (centres undefined),31.62,inconclusive,"inhibitor, single point"
CN(C)c1ncc2nc(-c3cccc(C#N)c3)c(=O)n(C)c2n1,39.81,inconclusive,"inhibitor, single point"
c1coc(-c2nc(-c3ccco3)c(-c3ccco3)nc2-c2ccco2)c1,1.995,active,-
COC(=O)CC(=O)CSc1nc2c(cc1C#N)CCC2,25.12,active,-
COc1ccc(C2C(C#N)=C(C)NC3=C2C(=O)CC(C)(C)C3)c(OC)c1 (centres undefined),25.12,active,-
CCC(C)(C)n1nnnc1CN(Cc1cc2cc(OC)ccc2[nH]c1=O)C1CCCC1,31.62,inconclusive,"inhibitor, single point"
Cc1onc(-c2ccccc2Cl)c1C(=O)NCc1ccco1,25.12,inconclusive,"inhibitor, single point"
Cc1cc(C)n2c3c(c(C#N)c2n1)CCCC3,39.81,inconclusive,"inhibitor, single point"
COc1ccc(-c2nc3cnc(N4CCNCC4)nc3n(-c3ccccc3)c2=O)cc1,19.95,active,-
Cc1ccc2[nH]c(=O)c(CN(CCc3ccccc3)Cc3nnnn3CC3CCCO3)cc2c1 (centres undefined),31.62,inconclusive,"inhibitor, single point"
Cc1cc2c3nonc3ccc2n1-c1ccccc1,31.62,active,-
N#CCCn1c(=O)c(-c2ccc(Cl)cc2)nc2cnc(N3CCOCC3)nc21,31.62,active,-
N#CC(C#N)=NNc1ccc(OC(F)(F)F)cc1,39.81,inconclusive,"inhibitor, single point"
CC(C)OC(=O)CC(=O)c1sc2nc3c(cc2c1N)CN(C)CC3,39.81,inconclusive,"inhibitor, single point"
CN1CCN(c2ncc3nc(-c4cc(F)cc(F)c4)c(=O)n(CCc4ccccc4)c3n2)CC1,25.12,active,-
CCC(C)NC(=O)C1CCN(S(=O)(=O)c2cccnc2)CC1 (centres undefined),31.62,inconclusive,"inhibitor, single point"
O=c1c(-c2ccc(Cl)cc2)nc2cnc(Nc3ccccc3)nc2n1C[C@H]1CCCO1,31.62,inconclusive,"inhibitor, single point"
CCn1c2ccccc2c2nc3ccccc3nc21,39.81,inconclusive,"inhibitor, single point"
CCOC(=O)C1=C(C)NC2=C(C(=O)C(C(=O)OCC)C(c3ccco3)C2)C1c1ccccn1 (centres undefined),31.62,active,-
COc1cc(C(=O)N2CCCN(c3nc4cc(C)ccc4cc3C#N)CC2)cc(OC)c1OC,25.12,active,-
CCN(CC)c1ccc2cc(-c3nc4ccccc4n3C)c(=O)oc2c1,39.81,inconclusive,"inhibitor, single point"
Cc1ccc(S(=O)(=O)c2cc3c(=O)n4cc(C)ccc4nc3n(CC3CCCO3)c2=N)cc1 (centres undefined),31.62,inconclusive,"inhibitor, single point"

The results are deposited in PubChem (AID893; NCATS, 2007).